Reference: PubChem BioAssay AID720505 (Drosophila RNAi Screening Center, 2013)
In all, the deposit lists about 20,000 reagents; shown is a random part of those that have a named target and a result. Of all reagents, about 2,100 (10%) are marked active. 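Raw plate signals without normalisation; calls rest on control-based scores that were not deposited; replicate 2 separates called from uncalled poorly.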 Unmarked entries are inactive. Names joined by + are all predicted targets of the reagent. No sequences are given here. Not given: the amount of reagent, the time to read-out.

Assay: 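Knock-downs that reduce calcium influx once internal stores are emptied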 (primary screen)
Cell system: Drosophila S2R+ cells
Reagent: long dsRNA against Drosophila genes
Treatment: thapsigargin (2 µM) in calcium-free buffer to empty internal stores, then 2 mM calcium added back
Detection: 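Fluo-4 signal in 384-well plates read on a FLIPR after thapsigargin (2 µM, calcium-free) store depletion and 2 mM calcium add-back; unnormalised mean endpoint per well; screen run twice, selected wells retested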
Scale: calcium signal and retest calcium signal: higher = more calcium entry after store depletion
Hit rule: 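About 1500 genes called as lowering calcium entry, by varying amounts, judged against per-plate control wells with STIM1 as positive and Rho1 as negative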
Meaning of the calls: active = called as lowering calcium entry; inactive = not called

| predicted target | DRSC id | calcium signal, replicate 1 | calcium signal, replicate 2 | retest calcium signal, replicate 1 | retest calcium signal, replicate 2 |
| --- | --- | --- | --- | --- | --- |
| Dci | DRSC08360 | 119 | 122 | – | – |
| gammaTub23C | DRSC00820 | 110 | 211 | – | – |
| BomS5 | DRSC22306 | 103 | 210 | – | – |
| CG42741 | DRSC04593 | 122 | 194 | – | – |
| CG42741 | DRSC22045 | 117 | 183 | – | – |
| Cht10 | DRSC03766 | 239 | 127 | – | – |
| Cht10 | DRSC03767 | 69 (active) | 165 | – | – |
| Cht10 | DRSC03768 | 197 | 83.8 | – | – |
| CG42367 | DRSC21388 | 123 | 92.3 | – | – |
| dpr18 | DRSC19606 | 76.8 (active) | 97.2 | – | – |
| miple1 | DRSC08722 | 98.8 | 90.1 | – | – |
| Ephrin | DRSC17165 | 136 | 169 | – | – |
| Pfk | DRSC07506 | 158 | 140 | – | – |
| yellow-d | DRSC04589 | 95.2 | 168 | – | – |
| CG14286 | DRSC14767 | 107 | 101 | – | – |
| DCAF12 | DRSC15475 | 163 | 104 | – | – |
| Blos1 | DRSC05970 | 119 | 137 | – | – |
| rux | DRSC18829 | 145 | 131 | – | – |
| mnd | DRSC11370 | 80.9 | 179 | – | – |
| CG46339 | DRSC14136 | 136 | 157 | – | – |
| Nepl8 | DRSC02759 | 70.9 (active) | 97.1 | – | – |
| Rhp | DRSC20279 | 100 | 109 | – | – |
| Nct | DRSC16172 | 143 | 325 | – | – |
| CG14856 | DRSC14980 | 128 | 181 | – | – |
| CG4409 | DRSC06869 | 182 | 155 | – | – |
| Cyp4d1 | DRSC18456 | 95.3 | 133 | – | – |
| drn + CG43675 | DRSC15147 | 65.6 (active) | 95.9 | – | – |
| CG12054 | DRSC14467 | 62 (active) | 82.2 | – | – |
| CG12054 | DRSC23137 | 118 | 151 | – | – |
| fd96Ca | DRSC16946 | 212 | 152 | – | – |
| CG5885 | DRSC02910 | 129 | 99.5 | – | – |
| Sam-S | DRSC00758 | 97.6 | 122 | – | – |
| CG12674 | DRSC00348 | 88.1 | 147 | – | – |
| cher | DRSC16924 | 192 | 176 | – | – |
| CG17776 | DRSC18136 | 124 | 112 | – | – |
| Cyp28c1 | DRSC20236 | 124 | 104 | – | – |
| CG31510 | DRSC14182 | 257 | 154 | – | – |
| red | DRSC14477 | 157 | 95.3 | – | – |
| red | DRSC23177 | 88.1 | 121 | – | – |
| CG9168 | DRSC08633 | 126 | 143 | – | – |
| Vm32E | DRSC03474 | 165 | 108 | – | – |
| sloth2 + sloth1 | DRSC17922 | 245 | 123 | – | – |
| sloth2 + sloth1 | DRSC17923 | 233 | 178 | – | – |
| CG15043 | DRSC19619 | 73.4 | 115 | – | – |
| CG13123 | DRSC02219 | 174 | 134 | – | – |
| CG43307 | DRSC00893 | 117 | 149 | 108 | 119 |
| CheB93b | DRSC21762 | 198 | 106 | – | – |
| SppL | DRSC15228 | 297 | 145 | – | – |
| CG34198 | DRSC05803 | 80.7 | 102 | – | – |
| CG9164 | DRSC19087 | 95.2 | 88.7 | – | – |
| CG9164 | DRSC20162 | 128 | 108 | – | – |
| Pli | DRSC16792 | 211 | 242 | – | – |
| CG32428 | DRSC11697 | 121 | 120 | – | – |
| CG32428 | DRSC11768 | 110 | 156 | – | – |
| Scsalpha1 | DRSC08698 | 133 | 112 | – | – |
| CG18223 | DRSC10306 | 85.2 | 113 | – | – |
| RanBP3 | DRSC14217 | 192 | 242 | – | – |
| RanBP3 | DRSC23153 | 101 | 103 | – | – |
| CG4645 | DRSC19907 | 136 | 113 | – | – |
| CG17597 | DRSC02630 | 85.3 | 112 | – | – |
| mthl9 | DRSC08506 | 81.3 | 64.5 | – | – |
| Parp1 | DRSC07725 | 113 | 91.5 | – | – |
| Parp1 | DRSC07778 | 88.6 | 159 | – | – |
| Parp1 | DRSC07780 | 74.4 | 144 | – | – |
| CG42496 + Ppcdc | DRSC03886 | 5191 (active) | 97.7 | 8135 | 97.3 |
| CG13033 | DRSC09913 | 131 | 162 | – | – |
| CG11630 | DRSC03696 | 104 | 111 | – | – |
| CG13705 | DRSC08314 | 105 | 52.4 | – | – |
| CG13705 | DRSC22691 | 134 | 139 | – | – |
| bif | DRSC20313 | 116 | 72.9 | – | – |
| CG6761 | DRSC10705 | 154 | 149 | – | – |
| CG13445 | DRSC09992 | 130 | 194 | – | – |
| Uhg3 | DRSC22963 | 98 | 134 | – | – |
| CG15435 | DRSC00450 | 93.7 | 117 | – | – |
| CG13085 | DRSC02189 | 162 | 87.9 | – | – |
| Tsp42Ep | DRSC06871 | 215 | 99.8 | – | – |
| Muc91C | DRSC16297 | 177 | 163 | – | – |
| Muc91C | DRSC21696 | 48.2 (active) | 96.2 | – | – |
| BckdhA | DRSC16395 | 214 | 145 | – | – |
| nol | DRSC21425 | 158 | 118 | – | – |
| Nadk1b | DRSC05432 | 121 | 122 | – | – |
| Nadk1b | DRSC06964 | 152 | 144 | – | – |
| Nadk1b | DRSC06965 | 106 | 228 | – | – |
